According to article PMC7862700:
The list shows a part of the results, in another mix than the full data. For part of these data: At the low end of the ranking, values are background and their order means little. The list shows a part of the results. For part of these data: The source does not settle which construct or isoform was used.

Protein sequences, listed by entry. Tags and fused reporters are not part of them. Lines headed by an entry give the natural chain unless they say otherwise; changes in a name come on top.
UniProt Q00613: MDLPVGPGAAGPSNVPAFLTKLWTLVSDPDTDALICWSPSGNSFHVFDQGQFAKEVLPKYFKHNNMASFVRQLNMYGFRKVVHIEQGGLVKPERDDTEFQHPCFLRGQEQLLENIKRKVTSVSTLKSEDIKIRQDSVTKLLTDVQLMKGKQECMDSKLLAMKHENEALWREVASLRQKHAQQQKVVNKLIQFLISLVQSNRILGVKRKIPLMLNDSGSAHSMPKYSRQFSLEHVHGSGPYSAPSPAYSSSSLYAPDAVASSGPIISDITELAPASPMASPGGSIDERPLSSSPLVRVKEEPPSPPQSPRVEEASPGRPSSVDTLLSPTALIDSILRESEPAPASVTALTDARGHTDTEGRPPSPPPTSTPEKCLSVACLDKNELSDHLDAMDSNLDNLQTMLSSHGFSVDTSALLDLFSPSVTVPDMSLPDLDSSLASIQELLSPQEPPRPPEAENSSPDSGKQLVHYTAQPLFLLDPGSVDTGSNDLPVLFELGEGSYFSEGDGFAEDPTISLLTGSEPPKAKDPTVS

Columns and labels:
HSF1 = HSF1 (UniProt Q00613); assay: DAPPL (digital affinity profiling via proximity ligation, sequencing); details: 10 mM Tris-HCl pH 7.5, 50 mM NaCl, 1 mM DTT, 4% glycerol, room temperature, 30 min; GST-TFs on glutathione beads, 16-mer random dsDNA library, 0.1% …; high values mean tight binding; double strand, one strand shown; scale: fold enrichment (6-mer frequency, TF over GST control)
ELF2 = target: T1, ELF2 (UniProt Q15723); assay: as above; details: 10 mM Tris-HCl pH 7.5, 50 mM NaCl, 1 mM DTT, 4% glycerol, room temperature, 30 min; GST-TFs on glutathione beads, 16-mer random dsDNA library, 0.1% …; high values mean tight binding; double strand, one strand shown; scale: fold enrichment (6-mer frequency, TF over GST control)
T1 sequence: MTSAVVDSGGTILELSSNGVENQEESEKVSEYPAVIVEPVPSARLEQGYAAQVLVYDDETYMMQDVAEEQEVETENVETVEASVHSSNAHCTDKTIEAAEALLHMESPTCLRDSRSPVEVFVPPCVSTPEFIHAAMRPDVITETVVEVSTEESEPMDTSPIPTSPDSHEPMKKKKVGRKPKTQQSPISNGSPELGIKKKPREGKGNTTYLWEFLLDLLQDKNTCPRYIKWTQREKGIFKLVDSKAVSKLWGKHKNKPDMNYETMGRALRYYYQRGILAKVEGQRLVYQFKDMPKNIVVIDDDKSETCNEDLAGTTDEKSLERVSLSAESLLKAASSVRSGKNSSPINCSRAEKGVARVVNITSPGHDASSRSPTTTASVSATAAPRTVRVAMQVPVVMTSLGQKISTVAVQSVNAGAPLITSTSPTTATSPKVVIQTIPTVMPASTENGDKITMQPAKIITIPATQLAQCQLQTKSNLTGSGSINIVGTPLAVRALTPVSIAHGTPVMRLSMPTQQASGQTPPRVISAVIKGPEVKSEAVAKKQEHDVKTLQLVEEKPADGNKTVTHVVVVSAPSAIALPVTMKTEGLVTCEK

Sequence	binding signal (HSF1)	binding signal (ELF2)
AGGGAC	0.604	0.727
AGAGAG	0.626	0.489
GCCAAG	0.777	0.82
TCGGAG	0.197	0.182
GGATCG	0.622	0.578
GACCCT	0.795	0.895
